Values from PubChem BioAssay AID1508597 (Cure First, 2020)

Aim: 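Knock-downs altering ovarian cancer cell survival with or without PARP inhibitor rucaparib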 (primary screen)
Cells: human ovarian carcinoma lines grown from tumours: OCI-P5x (papillary serous) and OCI-C5x (clear cell)
Reagent: siRNA pool against human genes, 1.25 pmol siRNA per well
Duration: 72 h or 96 h, depending on the cell culture
Conditions: rucaparib 20 µM (about IC30) or vehicle, present until read-out
Rucaparib or vehicle: Vehicle
Cell line: OCI-C5x (clear cell)
Measured: 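ATP luminescence measured at 72 or 96 h according to the culture, then normalised and expressed as percent viability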
Reading the numbers: viability, normalised: higher = more viable cells remaining
Hit rule: 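a well counts as a hit if its normalised viability is under 80 percent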
Meaning of the calls: active = viability under 80%; inactive = viability 80% or more
This is an unselected part of the about 2,100 reagents, under one of the conditions tested. 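Calls flag viability under 80% in either arm, not effects specific to rucaparib; the reference for percent is not stated.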 A number with no mark means an inactive call. Some reagents were tested in more than one well and are listed for each. Not stated in the record: the 100% reference.

target gene	technical replicate	viability, normalised (%)
ADGRA3	1	50.9 (active)
ADGRA3	2	51.2 (active)
ADGRA3	3	48.8 (active)
SLC1A4	1	60.8 (active)
SLC1A4	2	65 (active)
SLC1A4	3	49.1 (active)
BARD1	1	64.9 (active)
BARD1	2	58.1 (active)
BARD1	3	48.2 (active)
CKMT2	1	65.5 (active)
CKMT2	2	79.3 (active)
CKMT2	3	56 (active)
SMC3	1	52.3 (active)
SMC3	2	46.7 (active)
SMC3	3	55.7 (active)
FOXF2	1	64.1 (active)
FOXF2	2	75.1 (active)
FOXF2	3	62.8 (active)
ING2	1	72.1 (active)
ING2	2	61.9 (active)
ING2	3	49.2 (active)
RPA4	1	54.2 (active)
RPA4	2	59.8 (active)
RPA4	3	49 (active)
CARMIL1	1	55 (active)
CARMIL1	2	61.6 (active)
CARMIL1	3	55.4 (active)

Laid out differently: 3 of the entries above
target gene,technical replicate,"viability, normalised (%)"
SMC3,1,52.3 (active)
SMC3,2,46.7 (active)
SMC3,3,55.7 (active)

Further results follow.
target gene	technical replicate	viability, normalised (%)
SUPT3H	1	56.8 (active)
SUPT3H	2	50.3 (active)
SUPT3H	3	41.9 (active)
MTRF1	1	50.7 (active)
MTRF1	2	56.6 (active)
MTRF1	3	68.8 (active)
GPX4	1	38.3 (active)
GPX4	2	46.6 (active)
GPX4	3	50 (active)
UNG	1	105
UNG	2	63.9 (active)
UNG	3	60.7 (active)
GRK3	1	85
GRK3	1	53.9 (active)
GRK3	2	53.6 (active)
GRK3	3	63.7 (active)
GRK3	3	42.6 (active)
SFPQ	1	30.2 (active)
SFPQ	2	36.1 (active)
SFPQ	3	34.5 (active)
PCDHB9	1	53.2 (active)
PCDHB9	2	54.5 (active)
PCDHB9	3	57.2 (active)
TNP1	1	54.1 (active)
TNP1	2	58 (active)
TNP1	3	41.1 (active)
LATS2	1	56.5 (active)
LATS2	2	62.6 (active)
LATS2	3	60 (active)
TRMT6	1	83.3
TRMT6	2	93.2
TRMT6	3	83.3
